No constants are given. Whether binding was seen depends on the method and setting. Binding seen in cells or lysates may run through a third protein. A yes stands for co-enrichment or nearness to the bait. Other partners may have been found.
Target: RUVBL2 (mouse (endogenous in mESCs)) (UniProt Q9WTM5)
Assay: affinity purification with mass spectrometry; RUVBL2 ChIP-MS: mESCs cross-linked with 1% formaldehyde, chromatin digested with MNase and sonicated, antibody and Protein G magnetic beads, washes with 500 mM NaCl and 250 mM LiCl buffers; cutoff IP/GFP >= 1.49 and IP/Input >= 0.5

Protein sequences, listed by entry. Tags and fused reporters are not part of them.
UniProt Q9WTM5: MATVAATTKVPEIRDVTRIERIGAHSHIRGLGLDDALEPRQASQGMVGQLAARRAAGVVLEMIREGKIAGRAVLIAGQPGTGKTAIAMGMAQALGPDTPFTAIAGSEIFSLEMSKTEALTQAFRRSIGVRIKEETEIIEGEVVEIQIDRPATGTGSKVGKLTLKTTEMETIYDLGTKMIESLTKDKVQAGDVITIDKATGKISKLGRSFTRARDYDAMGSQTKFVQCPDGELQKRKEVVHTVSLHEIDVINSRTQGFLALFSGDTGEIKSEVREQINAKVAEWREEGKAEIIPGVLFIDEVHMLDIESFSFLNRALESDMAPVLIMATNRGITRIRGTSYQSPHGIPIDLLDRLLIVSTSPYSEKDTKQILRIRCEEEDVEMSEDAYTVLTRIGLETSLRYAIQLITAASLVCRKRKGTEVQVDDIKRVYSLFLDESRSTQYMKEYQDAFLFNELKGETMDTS
UniProt Q8BKX6: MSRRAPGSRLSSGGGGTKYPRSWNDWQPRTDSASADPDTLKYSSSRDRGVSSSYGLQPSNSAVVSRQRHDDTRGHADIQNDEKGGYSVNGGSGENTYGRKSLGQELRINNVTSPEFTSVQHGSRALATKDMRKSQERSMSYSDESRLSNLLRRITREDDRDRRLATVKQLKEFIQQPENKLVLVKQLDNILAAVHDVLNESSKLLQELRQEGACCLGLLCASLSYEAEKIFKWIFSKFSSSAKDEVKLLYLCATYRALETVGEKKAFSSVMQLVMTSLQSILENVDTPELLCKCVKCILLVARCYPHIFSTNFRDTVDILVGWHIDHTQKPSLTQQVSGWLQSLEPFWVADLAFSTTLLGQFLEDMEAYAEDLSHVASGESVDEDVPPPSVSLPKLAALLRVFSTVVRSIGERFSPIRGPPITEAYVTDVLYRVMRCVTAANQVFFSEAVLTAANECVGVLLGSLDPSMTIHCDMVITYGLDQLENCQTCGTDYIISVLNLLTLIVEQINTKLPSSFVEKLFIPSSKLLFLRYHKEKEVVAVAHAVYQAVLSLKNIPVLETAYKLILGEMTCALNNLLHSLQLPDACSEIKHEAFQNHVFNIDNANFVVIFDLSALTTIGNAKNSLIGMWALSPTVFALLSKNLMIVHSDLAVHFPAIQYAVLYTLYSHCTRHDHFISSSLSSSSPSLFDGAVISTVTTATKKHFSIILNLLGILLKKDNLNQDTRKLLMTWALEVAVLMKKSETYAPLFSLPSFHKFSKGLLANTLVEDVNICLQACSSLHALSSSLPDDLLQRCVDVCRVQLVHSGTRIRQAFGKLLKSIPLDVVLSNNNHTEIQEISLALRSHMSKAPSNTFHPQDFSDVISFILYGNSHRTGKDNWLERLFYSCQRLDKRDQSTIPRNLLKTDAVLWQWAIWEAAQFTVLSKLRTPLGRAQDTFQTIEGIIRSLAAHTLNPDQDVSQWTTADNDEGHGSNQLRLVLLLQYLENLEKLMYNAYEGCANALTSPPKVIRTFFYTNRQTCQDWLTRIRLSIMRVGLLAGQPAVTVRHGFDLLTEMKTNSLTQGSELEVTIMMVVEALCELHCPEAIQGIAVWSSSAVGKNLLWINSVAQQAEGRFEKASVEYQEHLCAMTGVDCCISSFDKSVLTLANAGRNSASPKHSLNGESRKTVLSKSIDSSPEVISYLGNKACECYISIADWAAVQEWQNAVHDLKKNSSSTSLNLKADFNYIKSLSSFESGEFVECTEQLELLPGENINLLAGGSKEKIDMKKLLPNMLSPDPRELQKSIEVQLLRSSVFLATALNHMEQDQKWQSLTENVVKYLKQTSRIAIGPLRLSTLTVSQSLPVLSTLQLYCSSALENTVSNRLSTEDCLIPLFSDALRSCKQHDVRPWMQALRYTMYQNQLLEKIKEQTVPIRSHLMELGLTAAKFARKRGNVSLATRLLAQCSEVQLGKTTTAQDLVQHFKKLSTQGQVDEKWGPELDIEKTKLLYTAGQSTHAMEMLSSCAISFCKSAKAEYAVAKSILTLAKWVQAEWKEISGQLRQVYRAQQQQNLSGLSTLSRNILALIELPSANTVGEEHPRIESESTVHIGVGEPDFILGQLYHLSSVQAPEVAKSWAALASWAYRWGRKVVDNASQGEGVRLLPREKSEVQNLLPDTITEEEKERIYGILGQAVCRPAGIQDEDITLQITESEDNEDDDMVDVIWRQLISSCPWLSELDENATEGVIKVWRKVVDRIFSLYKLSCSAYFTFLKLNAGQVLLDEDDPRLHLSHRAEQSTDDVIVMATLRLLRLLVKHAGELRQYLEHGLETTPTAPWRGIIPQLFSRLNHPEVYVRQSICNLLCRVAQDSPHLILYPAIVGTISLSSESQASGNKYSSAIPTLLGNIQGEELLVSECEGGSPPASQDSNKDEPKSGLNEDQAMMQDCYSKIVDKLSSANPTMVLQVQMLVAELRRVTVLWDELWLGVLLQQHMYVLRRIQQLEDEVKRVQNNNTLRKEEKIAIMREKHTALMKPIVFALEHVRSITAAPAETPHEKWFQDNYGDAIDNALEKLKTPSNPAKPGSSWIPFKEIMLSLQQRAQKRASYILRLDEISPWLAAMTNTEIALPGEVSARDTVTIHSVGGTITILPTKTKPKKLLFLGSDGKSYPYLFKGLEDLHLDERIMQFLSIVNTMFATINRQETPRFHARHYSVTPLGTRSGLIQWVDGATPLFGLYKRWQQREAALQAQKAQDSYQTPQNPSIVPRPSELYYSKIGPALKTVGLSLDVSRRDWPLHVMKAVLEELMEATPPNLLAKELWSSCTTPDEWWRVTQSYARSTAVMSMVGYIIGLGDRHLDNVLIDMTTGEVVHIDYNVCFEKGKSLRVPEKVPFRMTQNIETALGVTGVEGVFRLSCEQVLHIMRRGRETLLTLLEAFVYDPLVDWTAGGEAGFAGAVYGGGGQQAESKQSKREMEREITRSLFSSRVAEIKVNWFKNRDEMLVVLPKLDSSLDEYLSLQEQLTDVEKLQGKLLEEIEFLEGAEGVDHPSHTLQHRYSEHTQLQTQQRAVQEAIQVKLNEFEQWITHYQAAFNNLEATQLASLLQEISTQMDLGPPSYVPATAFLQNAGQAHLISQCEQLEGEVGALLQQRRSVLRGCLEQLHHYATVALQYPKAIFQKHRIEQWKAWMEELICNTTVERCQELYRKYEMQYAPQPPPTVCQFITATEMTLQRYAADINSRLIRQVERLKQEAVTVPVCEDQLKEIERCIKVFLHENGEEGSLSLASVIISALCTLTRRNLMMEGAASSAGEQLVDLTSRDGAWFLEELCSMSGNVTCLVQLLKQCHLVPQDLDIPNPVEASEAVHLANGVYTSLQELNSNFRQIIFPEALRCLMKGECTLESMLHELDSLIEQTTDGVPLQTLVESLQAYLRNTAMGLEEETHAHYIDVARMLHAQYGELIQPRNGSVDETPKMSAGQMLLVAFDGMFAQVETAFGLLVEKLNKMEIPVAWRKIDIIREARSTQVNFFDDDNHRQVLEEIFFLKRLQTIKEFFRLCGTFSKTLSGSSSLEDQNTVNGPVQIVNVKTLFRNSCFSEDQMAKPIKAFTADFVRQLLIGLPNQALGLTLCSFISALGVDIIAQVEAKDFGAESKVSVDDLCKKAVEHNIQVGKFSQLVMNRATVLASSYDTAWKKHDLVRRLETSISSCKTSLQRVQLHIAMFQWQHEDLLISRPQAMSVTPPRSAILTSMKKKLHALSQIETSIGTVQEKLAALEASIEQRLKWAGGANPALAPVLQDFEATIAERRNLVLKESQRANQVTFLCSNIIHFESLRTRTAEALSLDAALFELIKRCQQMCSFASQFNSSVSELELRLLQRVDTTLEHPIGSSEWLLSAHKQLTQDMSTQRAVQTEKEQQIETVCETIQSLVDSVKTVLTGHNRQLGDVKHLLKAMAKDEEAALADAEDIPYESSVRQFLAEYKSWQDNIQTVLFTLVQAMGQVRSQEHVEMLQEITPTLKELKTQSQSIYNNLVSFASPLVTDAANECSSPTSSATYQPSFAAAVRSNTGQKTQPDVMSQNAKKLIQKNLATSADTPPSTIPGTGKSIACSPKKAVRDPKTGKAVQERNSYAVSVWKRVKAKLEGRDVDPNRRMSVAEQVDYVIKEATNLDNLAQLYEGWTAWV
UniProt Q8CHK4: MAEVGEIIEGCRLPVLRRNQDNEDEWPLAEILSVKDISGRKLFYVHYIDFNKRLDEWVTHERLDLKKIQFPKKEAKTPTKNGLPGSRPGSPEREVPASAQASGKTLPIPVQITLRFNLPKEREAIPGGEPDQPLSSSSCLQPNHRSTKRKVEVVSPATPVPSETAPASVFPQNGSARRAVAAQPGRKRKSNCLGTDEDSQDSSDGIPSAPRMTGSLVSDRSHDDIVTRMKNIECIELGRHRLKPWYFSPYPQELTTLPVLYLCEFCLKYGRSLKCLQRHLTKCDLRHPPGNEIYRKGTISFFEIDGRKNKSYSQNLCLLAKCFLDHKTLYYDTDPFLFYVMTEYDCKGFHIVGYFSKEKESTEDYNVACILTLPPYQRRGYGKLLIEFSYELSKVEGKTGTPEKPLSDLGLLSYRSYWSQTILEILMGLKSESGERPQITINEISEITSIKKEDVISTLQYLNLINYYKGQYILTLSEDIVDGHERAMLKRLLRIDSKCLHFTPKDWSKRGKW

binding | Substance
binds | SMG1 (from UniProt Q8BKX6 1-3658)
binds | TIP60 (from UniProt Q8CHK4 1-513)
